PubChem BioAssay AID1259331 | Drosophila RNAi Screening Center – 2017
In all, the deposit lists about 3,100 reagents; below is a random part of them. 126 of them (4.1%) count as active. 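Calls are per reagent; zinc was so toxic that few knock-downs lowered ATP further, so most hits raise ATP.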 Raw values are not corrected between plates. No sequences are given here. Not given: the amount of reagent.

Purpose: 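Knock-downs that alter ATP level after a high zinc chloride dose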 (primary screen)
System: Drosophila S2R+ cells
Reagents: long dsRNA against Drosophila genes
Duration: 5 days (4 days knock-down, then 1 day zinc)
Treatment: zinc chloride at 15 mM final level for 1 day
Read-out: 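Total cellular ATP measured by luciferase luminescence as a viability proxy, turned into Z scores from three plate copies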
Scale: mean Z score: higher = more ATP than other wells, better survival under zinc; ATP luminescence: higher = more ATP, more viable cells
Call rule: 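Hit when the absolute Z score is greater than 1.5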
Calls: active = hit, ATP up or down; inactive = not a hit

For Tmhs [DRSC08231] the deposit lists mean Z score -0.771; ATP luminescence, replicate 1 = 24114; ATP luminescence, replicate 2 = 24773; inactive.
Silencing of LRP1 [DRSC07238] came out at: mean Z score -0.373; ATP luminescence, replicate 1 = 74636; ATP luminescence, replicate 2 = 67845; inactive.
Against CG33303 [DRSC02848] the deposit lists mean Z score 0.0674; ATP luminescence, replicate 1 = 49882; ATP luminescence, replicate 2 = 49109; inactive.
For CG33303 [DRSC39812] the deposit lists mean Z score 0.102; ATP luminescence, replicate 1 = 55933; ATP luminescence, replicate 2 = 59500; inactive.
Depletion of egh [DRSC18771] gave: mean Z score -0.893; ATP luminescence, replicate 1 = 55625; ATP luminescence, replicate 2 = 46760; inactive.
Depletion of egh [DRSC29898] resulted in: mean Z score 0.0305; ATP luminescence, replicate 1 = 45131; ATP luminescence, replicate 2 = 51338; inactive.
Against sog [DRSC20379], the values are mean Z score 1.69; ATP luminescence, replicate 1 = 94044; ATP luminescence, replicate 2 = 94007; active.
tinc [DRSC14799] gave mean Z score -0.47; ATP luminescence, replicate 1 = 34982; ATP luminescence, replicate 2 = 42302; inactive.
Silencing of tinc [DRSC16308] gave: mean Z score 0.885; ATP luminescence, replicate 1 = 36885; ATP luminescence, replicate 2 = 72105; inactive.
With knock-down of Eph [DRSC17164] the results were mean Z score -0.682; ATP luminescence, replicate 1 = 55162; ATP luminescence, replicate 2 = 54321; inactive.
Eph [DRSC36767] showed mean Z score 0.0841; ATP luminescence, replicate 1 = 50086; ATP luminescence, replicate 2 = 46091; inactive.
Against Eph [DRSC36768], the values are mean Z score 0.188; ATP luminescence, replicate 1 = 47943; ATP luminescence, replicate 2 = 51407; inactive.

Copied from the entries so far (2 entries):
tinc [DRSC16308] | mean Z score = 0.885; ATP luminescence, replicate 1 = 36885; ATP luminescence, replicate 2 = 72105; Call = inactive
Eph [DRSC17164] | mean Z score = -0.682; ATP luminescence, replicate 1 = 55162; ATP luminescence, replicate 2 = 54321; Call = inactive
